32 targets from the supplement of paper PMC10849652 can be followed below.

The chains behind the UniProt entries cited, without tags or fusion partners. Where a name states a change or a piece, a line headed by the entry shows the natural chain unless it says otherwise.
UniProt Q9NYU1: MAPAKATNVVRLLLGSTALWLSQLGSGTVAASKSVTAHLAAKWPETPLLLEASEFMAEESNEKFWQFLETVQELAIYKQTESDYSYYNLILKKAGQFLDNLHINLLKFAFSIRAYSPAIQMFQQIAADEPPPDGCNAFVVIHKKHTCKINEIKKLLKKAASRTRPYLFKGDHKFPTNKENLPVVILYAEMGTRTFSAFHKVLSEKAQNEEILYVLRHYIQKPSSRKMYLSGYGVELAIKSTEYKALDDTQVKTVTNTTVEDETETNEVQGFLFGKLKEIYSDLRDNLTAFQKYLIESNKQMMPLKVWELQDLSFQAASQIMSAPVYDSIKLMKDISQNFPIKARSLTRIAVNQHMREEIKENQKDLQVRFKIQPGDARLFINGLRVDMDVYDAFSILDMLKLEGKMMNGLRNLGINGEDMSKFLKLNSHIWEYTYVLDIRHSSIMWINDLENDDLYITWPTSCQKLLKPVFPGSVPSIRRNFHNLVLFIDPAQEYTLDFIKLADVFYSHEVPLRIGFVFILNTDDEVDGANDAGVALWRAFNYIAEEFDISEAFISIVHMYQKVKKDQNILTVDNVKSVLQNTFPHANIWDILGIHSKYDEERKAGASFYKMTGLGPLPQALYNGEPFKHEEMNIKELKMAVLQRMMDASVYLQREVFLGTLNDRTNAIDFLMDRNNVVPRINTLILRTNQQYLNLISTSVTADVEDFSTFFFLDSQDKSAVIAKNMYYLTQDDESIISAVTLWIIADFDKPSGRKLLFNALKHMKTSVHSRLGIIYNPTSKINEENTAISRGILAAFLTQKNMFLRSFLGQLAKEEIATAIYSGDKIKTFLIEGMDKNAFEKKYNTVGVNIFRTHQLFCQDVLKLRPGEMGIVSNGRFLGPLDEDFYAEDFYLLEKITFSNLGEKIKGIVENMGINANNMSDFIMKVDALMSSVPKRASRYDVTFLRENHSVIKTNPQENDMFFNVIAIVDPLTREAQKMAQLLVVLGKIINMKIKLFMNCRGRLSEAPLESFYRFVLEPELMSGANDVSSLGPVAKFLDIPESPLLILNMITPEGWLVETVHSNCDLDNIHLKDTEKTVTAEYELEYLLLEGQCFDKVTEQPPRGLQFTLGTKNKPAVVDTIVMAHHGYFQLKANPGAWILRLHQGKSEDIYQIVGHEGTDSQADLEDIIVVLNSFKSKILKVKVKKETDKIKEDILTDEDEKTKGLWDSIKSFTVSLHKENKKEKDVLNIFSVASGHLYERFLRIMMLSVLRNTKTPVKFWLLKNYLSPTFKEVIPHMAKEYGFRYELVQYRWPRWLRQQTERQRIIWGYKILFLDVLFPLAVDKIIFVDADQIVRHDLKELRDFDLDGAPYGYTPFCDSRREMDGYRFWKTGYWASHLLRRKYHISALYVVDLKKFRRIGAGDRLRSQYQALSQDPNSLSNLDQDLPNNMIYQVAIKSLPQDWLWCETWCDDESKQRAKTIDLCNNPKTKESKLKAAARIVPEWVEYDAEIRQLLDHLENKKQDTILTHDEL
UniProt Q6BDS2: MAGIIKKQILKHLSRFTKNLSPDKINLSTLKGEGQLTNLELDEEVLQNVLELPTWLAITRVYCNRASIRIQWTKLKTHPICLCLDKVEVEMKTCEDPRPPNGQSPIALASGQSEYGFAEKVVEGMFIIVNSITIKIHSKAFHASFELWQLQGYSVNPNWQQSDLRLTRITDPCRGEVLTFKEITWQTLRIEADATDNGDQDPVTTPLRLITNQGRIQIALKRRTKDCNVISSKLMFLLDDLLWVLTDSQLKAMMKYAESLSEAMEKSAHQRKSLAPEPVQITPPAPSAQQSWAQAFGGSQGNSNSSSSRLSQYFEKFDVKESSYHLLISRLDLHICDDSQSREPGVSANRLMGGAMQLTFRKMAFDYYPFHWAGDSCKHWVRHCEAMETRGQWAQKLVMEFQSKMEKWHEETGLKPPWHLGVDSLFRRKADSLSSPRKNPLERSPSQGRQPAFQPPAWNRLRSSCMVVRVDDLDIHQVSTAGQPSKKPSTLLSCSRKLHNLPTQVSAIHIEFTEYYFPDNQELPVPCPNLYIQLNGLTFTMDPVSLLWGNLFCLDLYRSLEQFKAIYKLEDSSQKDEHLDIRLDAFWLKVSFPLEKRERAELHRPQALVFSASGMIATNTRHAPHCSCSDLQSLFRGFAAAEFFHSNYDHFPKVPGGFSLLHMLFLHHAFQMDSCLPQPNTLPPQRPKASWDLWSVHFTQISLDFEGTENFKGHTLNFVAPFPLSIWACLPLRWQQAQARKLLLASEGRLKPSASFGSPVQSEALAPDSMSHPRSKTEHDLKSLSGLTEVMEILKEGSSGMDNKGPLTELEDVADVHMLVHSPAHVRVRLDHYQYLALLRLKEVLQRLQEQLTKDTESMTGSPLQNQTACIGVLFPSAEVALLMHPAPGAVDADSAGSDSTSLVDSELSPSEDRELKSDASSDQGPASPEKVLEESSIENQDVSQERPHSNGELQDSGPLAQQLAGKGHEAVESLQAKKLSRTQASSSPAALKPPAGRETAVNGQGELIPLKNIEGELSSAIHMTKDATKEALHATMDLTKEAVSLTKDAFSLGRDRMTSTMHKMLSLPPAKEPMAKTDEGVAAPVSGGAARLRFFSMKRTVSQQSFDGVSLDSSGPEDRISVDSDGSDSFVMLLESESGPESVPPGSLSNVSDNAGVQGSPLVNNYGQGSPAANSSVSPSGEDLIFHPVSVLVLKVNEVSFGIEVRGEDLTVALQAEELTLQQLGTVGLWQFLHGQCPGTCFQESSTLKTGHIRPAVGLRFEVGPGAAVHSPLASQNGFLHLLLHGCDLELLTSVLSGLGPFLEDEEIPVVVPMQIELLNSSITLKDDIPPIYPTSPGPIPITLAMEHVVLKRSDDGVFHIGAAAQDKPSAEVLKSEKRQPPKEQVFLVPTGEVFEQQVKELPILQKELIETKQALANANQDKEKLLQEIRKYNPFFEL
UniProt P63027, whole entry, looked up: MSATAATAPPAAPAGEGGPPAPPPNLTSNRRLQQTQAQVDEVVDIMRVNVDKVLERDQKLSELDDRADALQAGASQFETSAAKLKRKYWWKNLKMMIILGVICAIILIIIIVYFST
UniProt Q13107: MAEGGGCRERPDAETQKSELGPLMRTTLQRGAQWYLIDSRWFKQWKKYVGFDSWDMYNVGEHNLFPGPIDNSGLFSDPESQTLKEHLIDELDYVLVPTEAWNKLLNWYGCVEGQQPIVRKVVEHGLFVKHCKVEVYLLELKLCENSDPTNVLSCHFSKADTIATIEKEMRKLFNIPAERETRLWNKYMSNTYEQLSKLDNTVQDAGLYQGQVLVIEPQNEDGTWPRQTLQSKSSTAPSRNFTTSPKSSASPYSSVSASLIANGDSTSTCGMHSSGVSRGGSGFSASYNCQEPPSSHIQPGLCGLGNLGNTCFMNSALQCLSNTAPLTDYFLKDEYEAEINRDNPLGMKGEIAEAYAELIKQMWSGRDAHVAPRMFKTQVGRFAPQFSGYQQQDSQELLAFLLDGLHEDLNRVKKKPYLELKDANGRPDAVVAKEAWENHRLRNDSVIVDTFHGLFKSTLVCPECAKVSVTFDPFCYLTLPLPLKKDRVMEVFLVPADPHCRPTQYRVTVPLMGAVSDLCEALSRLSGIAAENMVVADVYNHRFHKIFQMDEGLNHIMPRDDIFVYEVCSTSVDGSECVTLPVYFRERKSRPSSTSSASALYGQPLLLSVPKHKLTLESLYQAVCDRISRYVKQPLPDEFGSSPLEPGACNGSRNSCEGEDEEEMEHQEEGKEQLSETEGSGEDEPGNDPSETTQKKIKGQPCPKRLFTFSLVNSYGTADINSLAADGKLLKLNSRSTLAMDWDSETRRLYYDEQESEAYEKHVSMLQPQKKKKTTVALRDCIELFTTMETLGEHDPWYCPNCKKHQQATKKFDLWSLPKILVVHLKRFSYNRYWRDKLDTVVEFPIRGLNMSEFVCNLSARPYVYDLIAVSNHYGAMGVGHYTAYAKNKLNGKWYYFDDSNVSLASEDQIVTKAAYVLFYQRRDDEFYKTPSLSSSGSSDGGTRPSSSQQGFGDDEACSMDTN
UniProt P26640: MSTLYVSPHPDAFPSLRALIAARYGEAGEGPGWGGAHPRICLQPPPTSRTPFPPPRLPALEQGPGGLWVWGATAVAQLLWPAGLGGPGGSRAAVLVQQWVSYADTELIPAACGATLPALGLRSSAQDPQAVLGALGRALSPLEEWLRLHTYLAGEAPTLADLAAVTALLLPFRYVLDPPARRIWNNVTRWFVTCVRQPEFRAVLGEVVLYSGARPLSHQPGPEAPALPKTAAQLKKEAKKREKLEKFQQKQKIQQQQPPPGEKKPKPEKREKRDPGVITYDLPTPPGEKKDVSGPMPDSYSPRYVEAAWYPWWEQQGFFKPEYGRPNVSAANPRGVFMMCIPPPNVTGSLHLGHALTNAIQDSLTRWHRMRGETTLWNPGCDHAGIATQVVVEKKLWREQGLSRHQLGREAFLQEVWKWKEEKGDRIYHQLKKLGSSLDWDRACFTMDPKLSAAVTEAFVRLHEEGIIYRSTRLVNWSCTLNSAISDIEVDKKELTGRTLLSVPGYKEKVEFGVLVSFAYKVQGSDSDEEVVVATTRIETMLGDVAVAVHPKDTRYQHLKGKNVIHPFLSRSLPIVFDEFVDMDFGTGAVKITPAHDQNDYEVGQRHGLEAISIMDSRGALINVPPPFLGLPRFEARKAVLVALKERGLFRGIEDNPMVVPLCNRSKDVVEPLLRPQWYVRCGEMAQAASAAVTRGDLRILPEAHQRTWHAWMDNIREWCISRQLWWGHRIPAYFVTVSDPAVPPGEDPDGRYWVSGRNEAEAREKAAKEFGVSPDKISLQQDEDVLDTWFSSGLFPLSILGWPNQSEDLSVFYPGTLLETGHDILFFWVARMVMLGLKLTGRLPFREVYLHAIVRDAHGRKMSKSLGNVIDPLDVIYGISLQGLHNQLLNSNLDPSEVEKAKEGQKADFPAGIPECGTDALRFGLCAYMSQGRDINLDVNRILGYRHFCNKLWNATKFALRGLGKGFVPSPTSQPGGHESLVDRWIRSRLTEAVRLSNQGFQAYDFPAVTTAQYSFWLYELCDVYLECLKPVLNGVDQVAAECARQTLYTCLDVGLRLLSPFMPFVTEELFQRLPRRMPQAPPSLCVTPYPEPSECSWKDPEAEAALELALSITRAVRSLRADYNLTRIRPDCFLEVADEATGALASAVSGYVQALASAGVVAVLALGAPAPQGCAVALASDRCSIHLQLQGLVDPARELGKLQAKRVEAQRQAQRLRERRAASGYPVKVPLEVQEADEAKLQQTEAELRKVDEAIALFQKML
UniProt Q9NZ43: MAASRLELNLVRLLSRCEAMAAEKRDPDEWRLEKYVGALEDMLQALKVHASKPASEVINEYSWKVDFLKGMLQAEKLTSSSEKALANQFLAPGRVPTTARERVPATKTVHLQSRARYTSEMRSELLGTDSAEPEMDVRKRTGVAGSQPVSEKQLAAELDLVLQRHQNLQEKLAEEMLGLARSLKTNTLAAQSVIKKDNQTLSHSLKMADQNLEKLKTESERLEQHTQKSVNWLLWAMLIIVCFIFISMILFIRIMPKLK
UniProt Q86UV5: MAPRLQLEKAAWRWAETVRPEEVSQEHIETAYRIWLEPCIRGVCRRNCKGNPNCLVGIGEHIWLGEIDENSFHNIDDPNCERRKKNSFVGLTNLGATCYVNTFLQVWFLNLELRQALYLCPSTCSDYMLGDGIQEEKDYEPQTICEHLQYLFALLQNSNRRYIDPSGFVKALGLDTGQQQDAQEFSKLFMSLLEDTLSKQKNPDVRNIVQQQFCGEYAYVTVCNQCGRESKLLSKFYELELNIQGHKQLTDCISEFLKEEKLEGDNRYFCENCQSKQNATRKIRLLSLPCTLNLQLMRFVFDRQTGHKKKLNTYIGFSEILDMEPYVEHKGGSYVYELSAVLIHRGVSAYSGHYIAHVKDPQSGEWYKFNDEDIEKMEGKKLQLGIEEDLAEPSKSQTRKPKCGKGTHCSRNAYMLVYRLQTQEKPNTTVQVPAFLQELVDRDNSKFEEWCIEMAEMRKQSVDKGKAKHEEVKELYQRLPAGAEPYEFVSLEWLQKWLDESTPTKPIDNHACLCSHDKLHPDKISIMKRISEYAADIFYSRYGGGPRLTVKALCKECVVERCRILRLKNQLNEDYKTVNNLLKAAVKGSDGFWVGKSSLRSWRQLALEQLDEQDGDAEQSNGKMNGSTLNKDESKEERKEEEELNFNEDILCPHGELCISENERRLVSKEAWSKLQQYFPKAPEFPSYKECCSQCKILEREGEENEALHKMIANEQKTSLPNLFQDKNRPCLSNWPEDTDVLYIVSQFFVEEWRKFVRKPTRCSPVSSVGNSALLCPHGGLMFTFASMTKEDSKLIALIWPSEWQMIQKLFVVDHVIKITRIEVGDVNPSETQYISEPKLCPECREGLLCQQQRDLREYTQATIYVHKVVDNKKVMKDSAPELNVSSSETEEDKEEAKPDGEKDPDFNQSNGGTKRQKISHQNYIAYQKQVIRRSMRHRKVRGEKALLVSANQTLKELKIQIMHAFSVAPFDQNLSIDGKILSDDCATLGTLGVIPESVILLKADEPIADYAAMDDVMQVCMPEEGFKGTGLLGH

This is one part of the list.

Compound in the first assay: CS(=O)(=O)CCNCc1ccc(-c2ccc3ncnc(Nc4ccc(OCc5cccc(F)c5)c(Cl)c4)c3c2)o1 [lapatinib]
Put plainly: log2 fold change, soluble protein after heating vs DMSO (PISA); higher = thermal stabilisation; K562 lysate, 10 uM; active = over 0.2 and 3.5 SD of the protein, either way, in both replicates (recomputed). Put shortly: (§1)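 Thermal stability, expressed as log-two fold change relative to solvent controls, is given from duplicates. Crude K562 extract in PBS pH 7.4 with 1 mM MgCl2, at 1 mg/mL protein, was treated with 10 μM compound for 30 min and heated in aliquots for 3 min across 48°C-58°C. After pooling, adjustment to 0.5% NP-40 at 4°C and centrifugation at 21,000xg for 90 min, supernatant protein was measured by TMTpro 16plex LC-MS/MS with channel sums equalised.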
UGDH (UniProt O60701): the log2 fold change was inactive: 0.009.
Same read-out and setting: to USP32 (UniProt Q8NFA0) belongs inactive: -0.032.
In the case of VIRMA (UniProt Q69YN4), the log2 fold change was inactive: -0.062.
In the case of UFD1 isoform 1 (UniProt Q92890), the log2 fold change was inactive: 0.011.
As for VANGL1 (UniProt Q8TAA9), the log2 fold change was inactive: 0.047.
VARS2, A0A0G2JL52: the log2 fold change was inactive: -0.002.
As to UFC1 (UniProt Q9Y3C8), the log2 fold change is inactive: -0.041.
In the case of UQCR11 (UniProt O14957), the log2 fold change is inactive: 0.014.
Regarding UIMC1 (UniProt Q96RL1), the log2 fold change was inactive: 0.013.
Consider UTP6 (UniProt Q9NYH9), for which the log2 fold change is inactive: 0.
Take UQCRB (UniProt P14927): the log2 fold change was inactive: 0.009.
Take USP5 isoform 2 (UniProt P45974): the log2 fold change is inactive: 0.011.
Same read-out and setting: to UGGT2 (UniProt Q9NYU1) belongs inactive: -0.008; to UQCRH (UniProt P07919), inactive: 0.009; to VCP (UniProt P55072), inactive: 0.01.
UHRF1BP1 (UniProt Q6BDS2): the log2 fold change was inactive: 0.093.
On the same count and under the same terms, to UNC5B (UniProt Q8IZJ1) belongs inactive: -0.178; to VCX3B (UniProt Q9H321), inactive: 0.018; to UHRF1BP1L (UniProt A0JNW5), inactive: -0.034.
Consider UNC45A (UniProt Q9H3U1), for which the log2 fold change is inactive: -0.006.
On to UPF3B (UniProt Q9BZI7), for which the log2 fold change was inactive: 0.005.
For UGGT1 (UniProt Q9NYU2), the log2 fold change was inactive: -0.008.
Consider VAMP2 (UniProt P63027), for which the log2 fold change is inactive: 0.045.
Consider USP1 (UniProt O94782), for which the log2 fold change is inactive: 0.05.
For the target USP13 (UniProt Q92995), the log2 fold change is inactive: 0.033.
In the case of UFL1 (UniProt O94874), the log2 fold change was inactive: -0.044.
Regarding USP4 (UniProt Q13107), the log2 fold change was inactive: 0.026.
Same read-out and setting: the value for VARS (UniProt P26640) was inactive: -0.017; that for ULBP2 (UniProt Q9BZM5) was inactive: -0.067.
With UXS1 isoform 2 (UniProt Q8NBZ7), the log2 fold change is inactive: -0.083.
Regarding USE1 (UniProt Q9NZ43), the log2 fold change was inactive: -0.035.
Still for that read-out and setting: the value for USP48 isoform 8 (UniProt Q86UV5) was inactive: -0.01.

Compound in the next assay: CS(=O)(=O)N1CCN(Cc2cc3nc(-c4cccc5[nH]ncc45)nc(N4CCOCC4)c3s2)CC1 [pictilisib]
Described as above. Put shortly: as §1
Consider UGDH (UniProt O60701), for which the log2 fold change was inactive: -0.021.
In the case of USP32 (UniProt Q8NFA0), the log2 fold change was inactive: -0.06.
Same read-out and setting: to VIRMA (UniProt Q69YN4) belongs inactive: -0.049; to UFD1 isoform 1 (UniProt Q92890), inactive: -0.011; to VANGL1 (UniProt Q8TAA9), inactive: -0.071.
As for VARS2, A0A0G2JL52, the log2 fold change was inactive: -0.059.
Still for that read-out and setting: to UFC1 (UniProt Q9Y3C8) belongs inactive: -0.012; to UQCR11 (UniProt O14957), inactive: -0.186.
With UIMC1 (UniProt Q96RL1), the log2 fold change was inactive: 0.002.
As to UTP6 (UniProt Q9NYH9), the log2 fold change was inactive: -0.088.
With UQCRB (UniProt P14927), the log2 fold change was inactive: -0.071.
In the case of USP5 isoform 2 (UniProt P45974), the log2 fold change is inactive: 0.012.
With UGGT2 (UniProt Q9NYU1), the log2 fold change is inactive: 0.096.
On to UQCRH (UniProt P07919), for which the log2 fold change was inactive: -0.066.
For VCP (UniProt P55072), the log2 fold change is inactive: 0.009.
For the target UHRF1BP1 (UniProt Q6BDS2), the log2 fold change was inactive: -0.033.
In the case of UNC5B (UniProt Q8IZJ1), the log2 fold change is inactive: -0.079.
Turning to VCX3B (UniProt Q9H321), the log2 fold change is inactive: 0.035.
For the target UHRF1BP1L (UniProt A0JNW5), the log2 fold change is inactive: -0.019.
As for UNC45A (UniProt Q9H3U1), the log2 fold change was inactive: -0.026.
In the case of UPF3B (UniProt Q9BZI7), the log2 fold change is inactive: 0.021.
In the case of UGGT1 (UniProt Q9NYU2), the log2 fold change was inactive: -0.014.
Turning to VAMP2 (UniProt P63027), the log2 fold change was inactive: -0.05.
On the same count and under the same terms, the value for USP1 (UniProt O94782) was inactive: 0; that for USP13 (UniProt Q92995) was inactive: -0.067; that for UFL1 (UniProt O94874) was inactive: -0.035.
Same read-out and setting: the value for USP4 (UniProt Q13107) was inactive: 0.052; that for VARS (UniProt P26640) was inactive: -0.027.
On the same count and under the same terms, the value for ULBP2 (UniProt Q9BZM5) was inactive: 0.07; that for UXS1 isoform 2 (UniProt Q8NBZ7) was inactive: -0.044.
With USE1 (UniProt Q9NZ43), the log2 fold change was inactive: 0.088.
With USP48 isoform 8 (UniProt Q86UV5), the log2 fold change is inactive: -0.001.

Compound in the next assay: C[C@@H](Oc1cc(-c2cnn(C3CCNCC3)c2)cnc1N)c1c(Cl)ccc(F)c1Cl [crizotinib]
Described as above. Put shortly: as §1
Regarding UGDH (UniProt O60701), the log2 fold change is inactive: -0.015.
Still for that read-out and setting: to USP32 (UniProt Q8NFA0) belongs inactive: -0.079.
VIRMA (UniProt Q69YN4): the log2 fold change is inactive: -0.048.
For the target UFD1 isoform 1 (UniProt Q92890), the log2 fold change was inactive: 0.005.
Regarding VANGL1 (UniProt Q8TAA9), the log2 fold change was inactive: 0.031.
Regarding VARS2, A0A0G2JL52, the log2 fold change was inactive: -0.012.
On to UFC1 (UniProt Q9Y3C8), for which the log2 fold change is inactive: 0.056.
As for UQCR11 (UniProt O14957), the log2 fold change was inactive: 0.097.
Same read-out and setting: the value for UIMC1 (UniProt Q96RL1) was inactive: -0.003; that for UTP6 (UniProt Q9NYH9) was inactive: -0.118; that for UQCRB (UniProt P14927) was inactive: -0.003.
Still for that read-out and setting: the value for USP5 isoform 2 (UniProt P45974) was inactive: -0.002; that for UGGT2 (UniProt Q9NYU1) was inactive: -0.025.
As to UQCRH (UniProt P07919), the log2 fold change was inactive: 0.035.
On the same count and under the same terms, to VCP (UniProt P55072) belongs inactive: 0.028; to UHRF1BP1 (UniProt Q6BDS2), inactive: 0.027.
Same read-out and setting: to UNC5B (UniProt Q8IZJ1) belongs inactive: -0.046; to VCX3B (UniProt Q9H321), inactive: 0.025; to UHRF1BP1L (UniProt A0JNW5), inactive: -0.013.
As for UNC45A (UniProt Q9H3U1), the log2 fold change is inactive: -0.045.
For UPF3B (UniProt Q9BZI7), the log2 fold change is inactive: 0.007.
Regarding UGGT1 (UniProt Q9NYU2), the log2 fold change is inactive: 0.001.
As to VAMP2 (UniProt P63027), the log2 fold change is inactive: 0.105.
The same measure, in the same setting: to USP1 (UniProt O94782) belongs inactive: 0.013.
For USP13 (UniProt Q92995), the log2 fold change was inactive: 0.013.
As to UFL1 (UniProt O94874), the log2 fold change is inactive: -0.028.
For USP4 (UniProt Q13107), the log2 fold change is inactive: -0.067.
VARS (UniProt P26640): the log2 fold change was inactive: -0.068.
For the target ULBP2 (UniProt Q9BZM5), the log2 fold change was inactive: -0.07.
Take UXS1 isoform 2 (UniProt Q8NBZ7): the log2 fold change was inactive: 0.026.
The same measure, in the same setting: to USE1 (UniProt Q9NZ43) belongs inactive: -0.057; to USP48 isoform 8 (UniProt Q86UV5), inactive: -0.022.
